# Laboratory results reported in US8685992B2, “Histone deacetylase inhibitors based simultaneously on trisubstituted 1H-pyrroles and aromatic and heteroaromatic spacers” (Universidad del País Vasco, priority 2009, dated 2014).
# Tested on: Nuclear Extract from HeLa Cells
# Test: HeLa Nuclear Extract HDAC assay
# Type: biochemical, human
# Conditions: 50 μM substrate, 30° C., 2 h, read-out: IC50 (nM) of enzyme activity HeLa
structure (smiles),measurement,value
"O=C(CCCCCCC(=O)Nc1ccccc1)NO [SAHA, suberoylanilide hydroxamic acid, reference compound]",IC50,24.5 nM
